Patent US20210253998A1 (published 2021)
Results are given in words; binding and its absence hold for the method and conditions named. Binding seen in cells or lysates may run through a third protein. Some results given as binding are weak or reduced against the parent protein; the word gives no strength.

Chains of the proteins cited; added tags and fusions are not shown. Lines headed by an entry give the natural chain unless they say otherwise; changes in a name come on top.
UniProt Q9UBB5: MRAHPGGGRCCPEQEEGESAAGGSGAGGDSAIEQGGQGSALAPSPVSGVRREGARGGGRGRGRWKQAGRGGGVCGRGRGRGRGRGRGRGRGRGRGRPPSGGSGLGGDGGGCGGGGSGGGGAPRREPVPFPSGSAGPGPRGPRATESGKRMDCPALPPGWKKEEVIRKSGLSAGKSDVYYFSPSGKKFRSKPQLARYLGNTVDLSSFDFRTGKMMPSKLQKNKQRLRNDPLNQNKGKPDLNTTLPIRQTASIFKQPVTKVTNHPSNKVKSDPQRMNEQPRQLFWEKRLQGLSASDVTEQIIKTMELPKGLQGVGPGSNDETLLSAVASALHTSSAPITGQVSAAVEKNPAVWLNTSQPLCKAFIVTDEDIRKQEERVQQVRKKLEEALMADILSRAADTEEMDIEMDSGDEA
UniProt O95983: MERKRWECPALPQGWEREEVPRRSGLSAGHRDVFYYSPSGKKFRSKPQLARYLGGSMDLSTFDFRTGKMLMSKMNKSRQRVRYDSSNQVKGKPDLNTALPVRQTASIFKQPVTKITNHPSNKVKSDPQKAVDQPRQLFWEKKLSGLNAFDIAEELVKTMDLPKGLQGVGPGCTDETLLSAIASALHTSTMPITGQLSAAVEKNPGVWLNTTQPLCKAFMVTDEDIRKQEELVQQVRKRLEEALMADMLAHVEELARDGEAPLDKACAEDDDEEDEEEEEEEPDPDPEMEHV
UniProt Q01860: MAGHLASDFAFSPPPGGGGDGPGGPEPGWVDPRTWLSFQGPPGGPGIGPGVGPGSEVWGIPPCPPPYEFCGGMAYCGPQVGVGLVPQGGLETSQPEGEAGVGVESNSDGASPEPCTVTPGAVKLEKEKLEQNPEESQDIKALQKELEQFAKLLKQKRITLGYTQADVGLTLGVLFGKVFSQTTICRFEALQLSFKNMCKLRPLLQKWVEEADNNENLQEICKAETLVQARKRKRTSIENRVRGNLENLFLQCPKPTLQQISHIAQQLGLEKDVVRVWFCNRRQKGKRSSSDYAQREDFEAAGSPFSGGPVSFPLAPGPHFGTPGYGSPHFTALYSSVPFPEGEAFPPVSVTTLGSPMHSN
UniProt P01106: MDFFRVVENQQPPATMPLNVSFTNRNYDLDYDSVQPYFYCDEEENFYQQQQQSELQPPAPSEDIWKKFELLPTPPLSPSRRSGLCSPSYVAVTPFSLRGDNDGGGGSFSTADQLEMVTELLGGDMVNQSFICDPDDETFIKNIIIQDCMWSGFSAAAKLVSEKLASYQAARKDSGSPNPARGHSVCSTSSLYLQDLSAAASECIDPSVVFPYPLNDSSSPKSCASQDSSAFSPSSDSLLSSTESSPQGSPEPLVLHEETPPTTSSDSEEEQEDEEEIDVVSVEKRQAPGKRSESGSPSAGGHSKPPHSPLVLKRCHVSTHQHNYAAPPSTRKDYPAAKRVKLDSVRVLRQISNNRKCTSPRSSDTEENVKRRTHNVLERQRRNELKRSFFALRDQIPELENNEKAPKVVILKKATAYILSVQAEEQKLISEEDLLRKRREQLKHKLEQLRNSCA
UniProt Q13547: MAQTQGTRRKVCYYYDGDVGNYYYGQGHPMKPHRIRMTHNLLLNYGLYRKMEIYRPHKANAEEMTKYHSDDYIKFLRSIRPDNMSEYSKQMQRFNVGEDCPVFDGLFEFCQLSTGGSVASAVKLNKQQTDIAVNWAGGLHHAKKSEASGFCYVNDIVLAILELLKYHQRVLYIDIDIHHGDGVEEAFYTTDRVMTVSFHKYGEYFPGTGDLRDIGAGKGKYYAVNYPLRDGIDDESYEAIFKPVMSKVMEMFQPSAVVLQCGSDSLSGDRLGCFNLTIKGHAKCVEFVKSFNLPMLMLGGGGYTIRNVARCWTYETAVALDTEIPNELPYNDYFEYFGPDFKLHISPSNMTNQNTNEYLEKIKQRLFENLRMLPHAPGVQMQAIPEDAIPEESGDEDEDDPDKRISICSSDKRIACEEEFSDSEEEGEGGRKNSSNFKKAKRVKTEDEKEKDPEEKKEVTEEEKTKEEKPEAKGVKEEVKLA
UniProt O43474: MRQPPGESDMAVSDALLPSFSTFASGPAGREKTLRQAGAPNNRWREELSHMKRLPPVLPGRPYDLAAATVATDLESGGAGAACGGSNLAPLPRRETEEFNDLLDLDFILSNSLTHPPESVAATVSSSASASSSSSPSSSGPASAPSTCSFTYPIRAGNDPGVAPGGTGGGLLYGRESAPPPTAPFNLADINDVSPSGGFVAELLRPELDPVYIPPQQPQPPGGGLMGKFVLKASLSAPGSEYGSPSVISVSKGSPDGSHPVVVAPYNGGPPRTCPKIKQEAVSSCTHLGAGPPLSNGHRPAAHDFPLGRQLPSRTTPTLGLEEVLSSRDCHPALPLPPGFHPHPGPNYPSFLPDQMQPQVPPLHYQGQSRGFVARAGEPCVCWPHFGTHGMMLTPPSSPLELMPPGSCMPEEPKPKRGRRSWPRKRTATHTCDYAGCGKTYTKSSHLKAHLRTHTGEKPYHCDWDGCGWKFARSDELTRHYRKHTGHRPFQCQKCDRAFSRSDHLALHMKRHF
UniProt P48431: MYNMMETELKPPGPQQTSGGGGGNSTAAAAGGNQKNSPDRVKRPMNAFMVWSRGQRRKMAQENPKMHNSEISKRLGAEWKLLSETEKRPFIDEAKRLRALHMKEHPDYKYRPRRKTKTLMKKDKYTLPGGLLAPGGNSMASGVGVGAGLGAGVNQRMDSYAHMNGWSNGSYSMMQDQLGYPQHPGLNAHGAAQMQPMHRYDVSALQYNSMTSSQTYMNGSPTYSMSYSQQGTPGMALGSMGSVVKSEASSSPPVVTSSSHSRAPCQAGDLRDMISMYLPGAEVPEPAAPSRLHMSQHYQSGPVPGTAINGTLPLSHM

What was measured:
[1] = target: Mbd2 (overexpressed in HEK293T cells) (Homo sapiens (Human)) (UniProt Q9UBB5); assay: co-IP with anti-Flag from HEK293T lysates co-transfected with MBD2, immunoblot
[2] = target: Mbd3 (untagged, overexpressed in HEK293T cells) (Homo sapiens (Human)) (UniProt O95983); assay: co-IP with anti-Flag from HEK293T lysates, immunoblot anti-Mbd3
[3] = target: Mbd3 (untagged, overexpressed in HEK293T cells) (Homo sapiens (Human)) (UniProt O95983); assay: co-IP with anti-Flag from HEK293T lysates co-transfected with MBD3, immunoblot
[4] = target: Mbd3 (untagged, overexpressed in HEK293T cells) (Homo sapiens (Human)) (UniProt O95983); assay: co-IP after overexpression in 293HEK cells
[5] = target: Mbd3 (untagged, overexpressed in HEK293T cells) (Homo sapiens (Human)) (UniProt O95983); assay: co-IP after overexpression in HEK293 cells

| binding [1] | binding [2] | binding [3] | binding [4] | binding [5] | Substance |
| --- | --- | --- | --- | --- | --- |
|  | binds |  | binds | binds | Flag-tagged OCT4 (from UniProt Q01860 1-360) |
|  | binds |  |  | binds | Flag-tagged c-MYC (from UniProt P01106 1-454) |

The next lines start with the substance.

| Substance | binding [1] | binding [2] | binding [3] | binding [4] | binding [5] |
| --- | --- | --- | --- | --- | --- |
| Flag-tagged HDAC1 (from UniProt Q13547 1-482) (enzyme) | binds | binds | binds |  |  |
| Flag-tagged KLF4 (from UniProt O43474 1-513) |  | binds |  | binds | binds |
| Flag-tagged SOX2 (from UniProt P48431 1-317) |  | binds |  | binds | binds |
